Reference: article PMC5807360
Results are given in words; binding and its absence hold for the method and conditions named. Binding seen in cells or lysates may run through a third protein. Sequences can lack the tags named with a protein.

Target: RXEG1 ∆LRR-GFP (SP + eJM + TM + tail of RXEG1, GFP-tagged) (Nicotiana benthamiana)
Experiment: co-IP; proteins co-expressed in N. benthamiana leaves, isolated at 2 dai; total protein extract (150-200 mM NaCl, 50 mM Tris-HCl pH 7.5, 10 mM EDTA, 1.0% NP-40); GFP-trap A beads, 4 °C, 2 h; blots with anti-GFP and anti-HA

B1: XEG1-HA (Phytophthora sojae glycoside hydrolase 12 protein XEG1, C-terminal HA tag) (protein, UniProt G4ZHR2 20-241)
chain: GDYCGQWDWAKSTNYIVYNNLWNKNAAASGSQCTGVDKISGSTIAWHTSYTWTGGAATEVKSYSNAALVFSKKQIKNIKSIPTKMKYSYSHSSGTFVADVSYDLFTSSTASGSNEYEIMIWLAAYGGAGPISSTGKAIATVTIGSNSFKLYKGPNGSTTVFSFVATKTITNFSADLQKFLSYLTKNQGLPSSQYLITLEAGTEPFVGTNAKMTVSSFSAAVN
In the case of B1, the binding is reported as “no binding”.
